Measured values as given in article PMC4546648.

Biological target: His-tagged PLCγ1 cSH2 domain, purified from E. coli (UniProt P19174)
Experiment: pull-down; His-tagged cSH2 domains on Ni beads incubated overnight at 4°C with pre-cleared HEK293T lysate; western blot for endogenous PLCγ1; only the target purified

B1: PLCγ1, endogenous in HEK293T cells (enzyme, UniProt P19174 1-1290)
chain: MAGAASPCANGCGPGAPSDAEVLHLCRSLEVGTVMTLFYSKKSQRPERKTFQVKLETRQITWSRGADKIEGAIDIREIKEIRPGKTSRDFDRYQEDPAFRPDQSHCFVILYGMEFRLKTLSLQATSEDEVNMWIKGLTWLMEDTLQAPTPLQIERWLRKQFYSVDRNREDRISAKDLKNMLSQVNYRVPNMRFLRERLTDLEQRSGDITYGQFAQLYRSLMYSAQKTMDLPFLEASTLRAGERPELCRVSLPEFQQFLLDYQGELWAVDRLQVQEFMLSFLRDPLREIEEPYFFLDEFVTFLFSKENSVWNSQLDAVCPDTMNNPLSHYWISSSHNTYLTGDQFSSESSLEAYARCLRMGCRCIELDCWDGPDGMPVIYHGHTLTTKIKFSDVLHTIKEHAFVASEYPVILSIEDHCSIAQQRNMAQYFKKVLGDTLLTKPVEISADGLPSPNQLKRKILIKHKKLAEGSAYEEVPTSMMYSENDISNSIKNGILYLEDPVNHEWYPHYFVLTSSKIYYSEETSSDQGNEDEEEPKEVSSSTELHSNEKWFHGKLGAGRDGRHIAERLLTEYCIETGAPDGSFLVRESETFVGDYTLSFWRNGKVQHCRIHSRQDAGTPKFFLTDNLVFDSLYDLITHYQQVPLRCNEFEMRLSEPVPQTNAHESKEWYHASLTRAQAEHMLMRVPRDGAFLVRKRNEPNSYAISFRAEGKIKHCRVQQEGQTVMLGNSEFDSLVDLISYYEKHPLYRKMKLRYPINEEALEKIGTAEPDYGALYEGRNPGFYVEANPMPTFKCAVKALFDYKAQREDELTFIKSAIIQNVEKQEGGWWRGDYGGKKQLWFPSNYVEEMVNPVALEPEREHLDENSPLGDLLRGVLDVPACQIAIRPEGKNNRLFVFSISMASVAHWSLDVAADSQEELQDWVKKIREVAQTADARLTEGKIMERRKKIALELSELVVYCRPVPFDEEKIGTERACYRDMSSFPETKAEKYVNKAKGKKFLQYNRLQLSRIYPKGQRLDSSNYDPLPMWICGSQLVALNFQTPDKPMQMNQALFMTGRHCGYVLQPSTMRDEAFDPFDKSSLRGLEPCAISIEVLGARHLPKNGRGIVCPFVEIEVAGAEYDSTKQKTEFVVDNGLNPVWPAKPFHFQISNPEFAFLRFVVYEEDMFSDQNFLAQATFPVKGLKTGYRAVPLKNNYSEDLELASLLIKIDIFPAKENGDLSPFSGTSLRERGSDASGQLFHGRAREGSFESRYQQPFEDFRISQEHLADHFDSRERRAPRRTRVNGDNRL
binding: binds

Results are given in words; binding and its absence hold for the method and conditions named. In cells and extracts the contact can be indirect. Binding calls can cover weak binding; strength is not graded here.
